These are yes or no findings as the source states them, for the method shown. In cells and extracts the contact can be indirect. Here binding means that the protein was enriched with, or labelled near, the bait; the list need not be complete. A no says only that the protein was not detected with the bait. For some of these results: Where a sequence is shown, tags or fusion partners need not be part of it.
T1: DLG-1::GTA (DLG-1::GFP-2xTEV-Avi) (C. elegans) (UniProt G5ECY0)
T1 sequence (chain, biotin on the Avi tag (in vivo, by BirA)): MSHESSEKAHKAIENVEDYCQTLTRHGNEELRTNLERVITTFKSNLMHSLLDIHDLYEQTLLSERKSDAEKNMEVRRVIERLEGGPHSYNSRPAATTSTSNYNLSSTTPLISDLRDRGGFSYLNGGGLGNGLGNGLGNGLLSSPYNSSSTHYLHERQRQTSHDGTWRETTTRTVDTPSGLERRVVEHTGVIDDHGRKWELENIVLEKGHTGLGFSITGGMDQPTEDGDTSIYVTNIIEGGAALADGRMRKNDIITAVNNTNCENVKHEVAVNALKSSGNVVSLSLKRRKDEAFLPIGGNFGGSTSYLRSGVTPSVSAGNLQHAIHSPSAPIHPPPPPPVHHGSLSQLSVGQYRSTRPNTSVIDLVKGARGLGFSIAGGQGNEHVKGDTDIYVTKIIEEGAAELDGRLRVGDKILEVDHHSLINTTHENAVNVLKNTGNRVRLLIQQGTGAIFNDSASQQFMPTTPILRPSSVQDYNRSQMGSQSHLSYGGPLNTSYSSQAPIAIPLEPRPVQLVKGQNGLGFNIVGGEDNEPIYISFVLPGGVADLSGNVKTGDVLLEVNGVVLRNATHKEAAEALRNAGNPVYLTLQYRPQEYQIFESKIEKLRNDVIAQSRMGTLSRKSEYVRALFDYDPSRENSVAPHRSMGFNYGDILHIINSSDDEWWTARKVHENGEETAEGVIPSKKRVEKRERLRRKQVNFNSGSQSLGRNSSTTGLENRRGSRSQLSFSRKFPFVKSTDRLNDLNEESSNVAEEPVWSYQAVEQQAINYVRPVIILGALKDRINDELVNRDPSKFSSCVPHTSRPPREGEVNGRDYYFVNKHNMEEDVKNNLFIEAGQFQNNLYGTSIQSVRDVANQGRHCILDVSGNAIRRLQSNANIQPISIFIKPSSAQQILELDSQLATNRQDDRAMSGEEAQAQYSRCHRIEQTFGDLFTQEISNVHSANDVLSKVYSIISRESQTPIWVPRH

Protein sequences, listed by entry. Tags and fused reporters are not part of them. Lines headed by an entry give the natural chain unless they say otherwise; changes in a name come on top.
UniProt Q05062: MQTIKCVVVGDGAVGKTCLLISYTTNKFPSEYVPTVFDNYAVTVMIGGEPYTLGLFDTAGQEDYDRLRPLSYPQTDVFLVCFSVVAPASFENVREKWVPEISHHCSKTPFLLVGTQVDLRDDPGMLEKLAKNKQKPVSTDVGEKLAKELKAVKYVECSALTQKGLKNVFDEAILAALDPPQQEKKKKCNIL
UniProt A0A1C3NSL9: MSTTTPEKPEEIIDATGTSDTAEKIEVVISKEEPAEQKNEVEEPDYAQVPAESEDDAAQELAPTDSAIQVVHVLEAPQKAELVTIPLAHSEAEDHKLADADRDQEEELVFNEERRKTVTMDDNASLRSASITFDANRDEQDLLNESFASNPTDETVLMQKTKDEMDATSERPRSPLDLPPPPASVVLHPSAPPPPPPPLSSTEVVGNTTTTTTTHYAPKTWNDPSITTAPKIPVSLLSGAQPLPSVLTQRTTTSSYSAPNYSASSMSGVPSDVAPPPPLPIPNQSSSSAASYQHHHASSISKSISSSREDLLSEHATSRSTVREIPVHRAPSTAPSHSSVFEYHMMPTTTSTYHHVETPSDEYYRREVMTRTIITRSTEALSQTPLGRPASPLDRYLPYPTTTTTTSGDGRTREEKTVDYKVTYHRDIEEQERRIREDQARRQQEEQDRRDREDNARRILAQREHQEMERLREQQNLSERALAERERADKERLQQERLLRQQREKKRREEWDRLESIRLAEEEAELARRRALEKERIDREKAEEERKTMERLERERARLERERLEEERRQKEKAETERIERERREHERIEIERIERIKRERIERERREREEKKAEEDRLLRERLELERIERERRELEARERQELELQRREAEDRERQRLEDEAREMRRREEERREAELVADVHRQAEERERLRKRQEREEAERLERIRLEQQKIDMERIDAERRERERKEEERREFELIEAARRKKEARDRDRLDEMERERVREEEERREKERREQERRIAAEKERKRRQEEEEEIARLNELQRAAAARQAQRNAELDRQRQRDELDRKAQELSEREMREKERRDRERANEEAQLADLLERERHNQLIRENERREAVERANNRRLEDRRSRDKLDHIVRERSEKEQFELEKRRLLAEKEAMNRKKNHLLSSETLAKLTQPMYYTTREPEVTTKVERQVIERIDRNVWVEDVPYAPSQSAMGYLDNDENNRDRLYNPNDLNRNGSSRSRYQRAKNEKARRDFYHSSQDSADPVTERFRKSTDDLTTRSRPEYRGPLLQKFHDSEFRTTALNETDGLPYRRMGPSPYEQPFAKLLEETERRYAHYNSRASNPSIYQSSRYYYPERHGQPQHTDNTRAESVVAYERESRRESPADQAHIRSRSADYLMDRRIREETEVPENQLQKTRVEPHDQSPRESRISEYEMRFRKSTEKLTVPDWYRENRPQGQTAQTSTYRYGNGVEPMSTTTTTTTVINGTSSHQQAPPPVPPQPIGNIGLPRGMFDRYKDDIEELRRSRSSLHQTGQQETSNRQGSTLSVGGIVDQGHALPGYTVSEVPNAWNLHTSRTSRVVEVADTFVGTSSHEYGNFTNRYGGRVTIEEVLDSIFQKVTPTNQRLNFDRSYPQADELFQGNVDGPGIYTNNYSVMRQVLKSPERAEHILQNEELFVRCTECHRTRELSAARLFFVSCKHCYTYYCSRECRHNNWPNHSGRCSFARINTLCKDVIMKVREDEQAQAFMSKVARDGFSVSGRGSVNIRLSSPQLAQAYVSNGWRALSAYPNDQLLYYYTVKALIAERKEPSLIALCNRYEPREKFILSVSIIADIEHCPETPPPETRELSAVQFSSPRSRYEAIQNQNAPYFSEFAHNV
UniProt G5EEI1: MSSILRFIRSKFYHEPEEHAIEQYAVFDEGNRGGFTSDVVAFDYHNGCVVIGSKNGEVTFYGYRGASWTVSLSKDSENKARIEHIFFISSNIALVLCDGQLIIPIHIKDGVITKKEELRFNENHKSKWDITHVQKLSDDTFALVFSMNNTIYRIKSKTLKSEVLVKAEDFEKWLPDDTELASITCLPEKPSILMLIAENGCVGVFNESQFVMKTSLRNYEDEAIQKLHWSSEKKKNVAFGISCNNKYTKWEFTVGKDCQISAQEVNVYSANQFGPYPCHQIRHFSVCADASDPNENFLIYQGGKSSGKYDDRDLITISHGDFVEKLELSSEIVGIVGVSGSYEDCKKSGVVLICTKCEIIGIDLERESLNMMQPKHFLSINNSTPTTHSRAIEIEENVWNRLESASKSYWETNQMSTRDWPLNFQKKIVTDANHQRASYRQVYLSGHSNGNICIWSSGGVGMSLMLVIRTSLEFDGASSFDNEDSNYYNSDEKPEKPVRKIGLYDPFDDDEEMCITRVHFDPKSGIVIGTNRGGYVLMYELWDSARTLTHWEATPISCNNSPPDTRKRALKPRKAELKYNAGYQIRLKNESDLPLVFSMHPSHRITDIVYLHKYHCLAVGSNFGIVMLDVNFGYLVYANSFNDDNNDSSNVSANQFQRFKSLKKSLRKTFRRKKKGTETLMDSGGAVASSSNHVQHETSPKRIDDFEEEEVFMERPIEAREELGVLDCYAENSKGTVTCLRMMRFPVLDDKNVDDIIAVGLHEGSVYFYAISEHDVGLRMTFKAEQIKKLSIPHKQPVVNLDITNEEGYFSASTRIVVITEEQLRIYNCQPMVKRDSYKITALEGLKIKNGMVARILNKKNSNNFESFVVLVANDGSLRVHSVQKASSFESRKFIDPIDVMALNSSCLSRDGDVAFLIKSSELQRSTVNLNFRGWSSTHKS

T2: LET-413::GTA (LET-413::GFP-2xTEV-Avi) (C. elegans) (UniProt O61967)
T2 sequence (chain, biotin on the Avi tag (in vivo, by BirA)): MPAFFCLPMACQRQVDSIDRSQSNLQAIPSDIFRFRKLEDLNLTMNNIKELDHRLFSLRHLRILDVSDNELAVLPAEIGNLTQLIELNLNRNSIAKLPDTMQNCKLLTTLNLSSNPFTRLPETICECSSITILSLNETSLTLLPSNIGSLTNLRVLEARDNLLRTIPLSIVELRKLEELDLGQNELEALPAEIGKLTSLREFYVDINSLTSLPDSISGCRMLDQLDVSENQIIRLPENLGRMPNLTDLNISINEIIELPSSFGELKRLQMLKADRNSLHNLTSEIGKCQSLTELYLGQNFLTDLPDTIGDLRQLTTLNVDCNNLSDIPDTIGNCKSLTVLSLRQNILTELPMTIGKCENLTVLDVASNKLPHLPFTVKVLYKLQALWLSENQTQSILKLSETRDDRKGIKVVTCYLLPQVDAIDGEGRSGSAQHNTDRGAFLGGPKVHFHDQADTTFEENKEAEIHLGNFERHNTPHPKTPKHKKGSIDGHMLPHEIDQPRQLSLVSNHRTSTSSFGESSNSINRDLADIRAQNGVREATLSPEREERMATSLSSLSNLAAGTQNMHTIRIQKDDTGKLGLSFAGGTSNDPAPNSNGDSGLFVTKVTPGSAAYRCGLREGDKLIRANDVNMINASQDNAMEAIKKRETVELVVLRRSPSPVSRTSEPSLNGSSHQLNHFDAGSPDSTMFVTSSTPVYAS


Legend:
Assay in all cases: affinity purification with mass spectrometry; GTA-tagged bait biotinylated in vivo (BirA ubiquitous, intestine, seam/hyp7 or neurons) captured on streptavidin-coated beads from whole-animal lysate (L3/L4; 150 mM NaCl, 20 mM Tris pH 7.8, 5 mM EDTA, 1 % Triton X-100), 1.5 h at 4 °C, released by TEV protease, LC-MS/MS, SAINT scoring against GFP::TEV::Avi controls, triplicates
[1] = target: T1, DLG-1::GTA (DLG-1::GFP-2xTEV-Avi) (C. elegans)
[2] = target: GTA::CDC-42 (Avi-2xTEV-GFP::CDC-42) (C. elegans) (UniProt Q05062)
[3] = target: T2, LET-413::GTA (LET-413::GFP-2xTEV-Avi) (C. elegans)

Molecule | binding [1] | binding [2] | binding [3]
AJM-1 (from UniProt A0A1C3NSL9 1-1644) | binds | no binding | no binding
MAPH-1.2 (C. elegans (endogenous in whole animals)) | no binding | – | no binding
QARS-1 (protein, UniProt O62431 1-786) MATKEELLSLGLSDSKVAETLKNVKLTETIGSIVKLASESGEISKQKGTLLYQLATKLKPQVAAHTPLVVKYIMNDGIKTEPQLSAAIEYLLSHTVKGIQVPDFEKSCGVGVVVTIDDIEAAVTKVIGQHREKIVAERYSFPAGKLLGELRALLPWADGAITKKEVDLRFLELLGPKTAEDLAPKKKEKKPEGPKPSKDAAAAATAPGTKNQKEASPEEFADGAETMDELLRTRAHFHKVGENFKQDGYVTTPKTAELLKAHVAAVGGKVVTRFPPEPNGVLHIGHAKAININFGYAKAMGGVCNLRFDDTNPEKEEEKFFSAIEDIVHWLGYDPARVTHSSDNFQQLYLWAVKLIQKGLAFVCHQKVEEMRGFEVQLSPWRERPIEENIQLFEDMKNGKFDEGEATLRLKLTLEEGKVDPVAYRIKYVPHHRTGNQWCIYPTYDYTHCLCDSIENITHSLCTKEFQSRRSSYYWLCNALDIYCPVQWEYGRLNVNYTVVSKRKILKLITTKTVNDWDDPRLFTLTALRRRGIPSEAINRFVAKLGLTMSQMVIDPHVLDATVRDYLNIHAPRTMAVLEGLKLTIENFSELNLPSSVDVPDFPSDPTDPRKHSVSVDREIFIEKSDYKPDDSDKSFRRLTPKQAVGLKHIGLVLRFVKEVKDAEGHVTEVVVKAEKLSEKDKPKAFIHWVAKPVSCEVRLYDRLFKSKNPEDAQLVPGGFLSDINPDSLTVVYNALIDQSIAKSKVYDRFQFERIGFFCVDRDSTSSTLVFNRTVMLKDGGASGKN | binds | – | binds
LEC-1 (protein, UniProt P36573 1-279) MSAEEPKSYPVPYRSVLQEKFEPGQTLIVKGSTIDESQRFTINLHSKTADFSGNDVPLHVSVRFDEGKIVLNSFSNGEWGKEERKSNPIKKGDSFDIRIRAHDDRFQIIVDHKEFKDYEHRLPLSSISHLSIDGDLYLNHVHWGGKYYPVPYESGLANGLPVGKSLLVFGTVEKKAKRFHVNLLRKNGDISFHFNPRFDEKHVIRNSLAANEWGNEEREGKNPFEKGVGFDLVIQNEEYAFQVFVNGERYISFAHRADPHDIAGLQISGDIELSGIQIQ | binds | – | –
ATAD-3 (endogenous) (protein, UniProt Q20748 1-595) MSWLFGVQKNATPQIPDDFQAGAAPGGPQQPGQGQRQEGNSKMAYSFDSTALERAAKAARDLEKFPNAKEALELSRMQEVTRQKEVENETKKIEAQLANMKSEHIRVAEEERRKTLGEETKHAHSRAEYQDQLARKRAEEELAMKARMQEESLRKQEESVKKQEQLRKQTIEHELALKHKYELEKIDAETRARAKAARDNRDVNLEQMKLHEEENRKTVIEKIKTSGELIGSGLNQFLNDKTKIAAAVGGLTALAVGWYTAKRGTGVTARYIESRLGKPSLVRETSRITPLEVLKHPIKSVQMMTRQKKDPLNGVVLPPALERRLRDIAITTSNTKRNNGLFRNVMFYGPPGTGKTLFAKSLAQHSGLDYAVLTGGDIAPLGRDGVSAIHKVFDWASKSRKGLIVFIDEADAFLQKRSKNGMSEDTRAALNAFLFRTGEQSRKFMLVVASNQPEQFDWAVNDRFDQLVEFTLPGMEERERILLQYFNEHIVTPATSGSRSQRLKLDNFDWVAKCNEVAKKTSGMSGRELSKLVIGWQASAYASETGVLTEAIVDRNTADAMVQHEHKMEWLEKEQLKARNQEVKFGTTLKRETAV | binds | no binding | no binding
B0303.3 (protein, UniProt P34255 1-448) MLRAVSTSFGTARAASAVAKKNMPNIVLVDAVRTPFVVSGTVFKDLMAVDLQKEAIKALVEKTKLPYEQLDHIICGTVIQECKTSNIAREAALLAGVPDKIPAHTVTLACISSNVAMTTGMGMLATGNANAIIAGGVELLSDVPIRYNRNARKAMLGMNKAKDVPSKLKIGGQIVKNLLSPELPAVAEFSTGETMGHSGDRLAAAFNVSRREQDEFAIRSHTLASEAAKNGKFTDVVPVFLDGKKPKTIKEDNGIRVSTLEKLSSLKPAFVKPHGTVTAANASYLTDGASAALIMTEEYALANGYKPKAYLRDYLYVAQDPKDQLLLSPAYVIPKLLDKAGLTLKDVDVFEIHEAFAGQVLANLNAMDSDYFCKEQMKRSGKFGRVPMDKLNLWGGSLSIGHPFGATGVRLATHSAHRLKEEKGQYAVIAACAAGGHGVGMLIEAYGK | – | – | binds

Continued, values first:

binding [1] | binding [2] | binding [3] | Molecule
no binding | no binding | binds | LGL-1 (endogenous) (from UniProt G5EEI1)
binds | – | – | COR-1 (protein, UniProt Q21624 1-607) MAQIVRQSKFRHVFCKPVKHESCMSDIRVTEITWDSLFCDVNPKFIAFINRGAGGPFMVIPVNKIGRVDKDYPFVDAHKAPCLEVAWSPFNDNVIASCSEDTTCKVWVIPDRGLNRNLSEPAVELTGHQKRVNTIAWHPVANNVLLTAGGENVMFMWNVGTGEALLEISGHPDQIWSINFNFDGSQFVTTCKDKKIRILDSHTGEVVHEGMGHEGVKPQRAIFVKDGLILSTGFTKRSERLYALRAPEDLSTPIVEEELDTSNGVVFPFYDEDSGLVYLVGKGDCAIRYYEVNNDAPYVHYINTYTTNEPQRAVGFQSKRGMSSEENEINRIYKLTTKGVVDILQFFVPRKSDLFQHDLYPDTRSTIPALTAEEFMEGKNAAPNRQPVNAAAAAAAAKPKVQVAKKANILSTLAPTAAESVPTQSYSERPPSSQQPSPRPSASPRPRPVVDDDMGIVTMREAPPSRPASSRASRTEIPPKEESKVDPMKPKQAVQLKSRAARDEPGGGAQTAGQRRAAAELERIKRDQSRTADEDNTLAPPPSSSRASASPRGSVSAASDVGHVPQNMDELLEDLMKMKAVLRQHERRIRMLEEEIADRNMSNAYSF

From article PMC4977824
